PubChem BioAssay AID1053208, Peter MacCallum Cancer Centre – 2014
Purpose: 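Find knock-downs that sensitise mouse osteosarcoma cells to doxorubicin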 (primary screen). Cell system: mouse osteosarcoma cells, early-passage culture from an engineered mouse model of fibroblastic bone tumour. Knock-down reagent: siRNA pool against mouse genes, 40 nM. Duration: about 120 h (48 h before drug, then 72 h with drug). Challenge: doxorubicin 100 nM for 72 h, roughly 30-40% inhibitory dose. Read-out: 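Luminescent ATP signal taken as viability with or without 100 nM doxorubicin for 72 h; mean of two wells set against non-targeting siRNA and turned into robust z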. Reading the numbers: viability z-score with doxorubicin: higher = more viable cells under doxorubicin; viability z-score without drug: higher = more viable cells with knock-down alone. Hit rule: 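Called active if knock-down leaves viability unchanged without drug (z within -2 to 2) but lowers it with doxorubicin (z at or under -2)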.
The whole screen tested about 17,000 reagents; below is a part drawn at random. 788 of them (4.7%) count as active. 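Calls rest on z-score classes alone; an extra cut-off of viability at most 70% of control was not applied to them.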 The numbers tell different reagents against one gene apart. Not all columns of the deposit are shown.

| gene symbol | reagent | combined z-score class | viability z-score with doxorubicin | viability z-score without drug | outcome |
| --- | --- | --- | --- | --- | --- |
| Sprr2j-ps | 1 | low cell count without drug only | 0.9 | -2.7 | inactive |
| Smoc1 | 1 | no change with or without drug | -1.01 | -1.69 | inactive |
| Rpl4 | 1 | low cell count with and without drug | -6.41 | -3.54 | inactive |
| Msrb2 | 1 | no change with or without drug | 1.35 | -1.52 | inactive |
| Gcsam | 1 | no change with or without drug | -0.45 | 1.01 | inactive |
| Slc2a4 | 1 | no change with or without drug | -0.56 | 0.51 | inactive |
| Vopp1 | 1 | no change with or without drug | -1.35 | -1.01 | inactive |
| Or8b1 | 1 | high cell count with doxorubicin only | 2.36 | 1.85 | inactive |
| Fsip1 | 1 | no change with or without drug | 0.45 | -0.17 | inactive |
| Tcl1b2 | 1 | low cell count with doxorubicin only | -3.37 | -1.01 | active |
| 2310011J03Rik | 1 | no change with or without drug | -0.56 | 1.18 | inactive |
| Or2j3 | 1 | no change with or without drug | -1.35 | -0.51 | inactive |
| Nlrc4 | 1 | no change with or without drug | 0.22 | -1.18 | inactive |
| Sumo2 | 1 | no change with or without drug | 0 | -0.67 | inactive |
| Zfp710 | 1 | no change with or without drug | -0.56 | 0.51 | inactive |
| Mas1 | 1 | no change with or without drug | 0 | 1.01 | inactive |
| Cyp3a13 | 1 | no change with or without drug | 0 | -0.17 | inactive |
| Arl4d | 1 | no change with or without drug | -1.35 | -0.84 | inactive |
| Arl4d | 2 | no change with or without drug | 0 | -1.85 | inactive |
| Rps6ka1 | 1 | no change with or without drug | -1.12 | -1.69 | inactive |
| Crocc | 1 | no change with or without drug | -0.9 | -0.51 | inactive |
| Rpl10 | 1 | low cell count with and without drug | -6.3 | -4.22 | inactive |
| Grin3b | 1 | no change with or without drug | 1.01 | -0.17 | inactive |
| Adora2a | 1 | low cell count with doxorubicin only | -2.02 | -0.17 | active |
| Epb41l2 | 1 | no change with or without drug | -1.12 | -1.01 | inactive |
| Sestd1 | 1 | no change with or without drug | 1.35 | 1.52 | inactive |
| Ang3 | 1 | no change with or without drug | -0.67 | -1.52 | inactive |
| Chordc1 | 1 | no change with or without drug | -0.67 | 1.52 | inactive |
| Fgf17 | 1 | no change with or without drug | 1.24 | 0.84 | inactive |
| Cryba2 | 1 | no change with or without drug | -0.56 | 0.17 | inactive |
| Ndrg1 | 1 | no change with or without drug | 0.67 | -0.17 | inactive |
| Ndrg1 | 2 | no change with or without drug | 0.67 | 0.84 | inactive |
| HDAC9 | 1 | no change with or without drug | 0.9 | 1.52 | inactive |
| Rcc2 | 1 | no change with or without drug | -0.22 | -0.67 | inactive |
| Gip | 1 | no change with or without drug | -0.45 | -0.17 | inactive |
| Acta2 | 1 | no change with or without drug | -0.11 | 0.84 | inactive |
| Acta2 | 2 | low cell count with and without drug | -2.14 | -2.19 | inactive |
| Coq4 | 1 | no change with or without drug | -0.67 | 0.34 | inactive |
| Fmn2 | 1 | no change with or without drug | 1.8 | 1.52 | inactive |
| Dctn5 | 1 | no change with or without drug | 1.35 | 1.18 | inactive |
| Elmo3 | 1 | no change with or without drug | -1.35 | 0.34 | inactive |
| 2810428J06Rik | 1 | no change with or without drug | -0.56 | -1.18 | inactive |
| Isca1 | 1 | no change with or without drug | -0.67 | -1.01 | inactive |
| Zc3h10 | 1 | no change with or without drug | -1.24 | 0.51 | inactive |
| Ppif | 1 | no change with or without drug | 0 | -0.84 | inactive |
| Lsm3 | 1 | no change with or without drug | -0.34 | -1.35 | inactive |
| Cmtm8 | 1 | no change with or without drug | -1.8 | -1.18 | inactive |
| Pip5k1c | 1 | no change with or without drug | -0.34 | 1.85 | inactive |
| Leprot | 1 | no change with or without drug | 0.56 | 0.34 | inactive |
| Hand2 | 1 | no change with or without drug | 1.24 | -0.84 | inactive |

Reagents listed above marked active:
| gene symbol | reagent | combined z-score class | viability z-score with doxorubicin | viability z-score without drug | outcome |
| --- | --- | --- | --- | --- | --- |
| Tcl1b2 | 1 | low cell count with doxorubicin only | -3.37 | -1.01 | active |
| Adora2a | 1 | low cell count with doxorubicin only | -2.02 | -0.17 | active |
